Test results reported in the supplement of paper PMC6411743.
± gives the standard deviation of the averaged measurements. Only a part is listed here, and it is no random draw. Small differences around the control level are noise.

Chains of the proteins cited; added tags and fusions are not shown. Lines headed by an entry give the natural chain unless they say otherwise; changes in a name come on top.
UniProt O75531: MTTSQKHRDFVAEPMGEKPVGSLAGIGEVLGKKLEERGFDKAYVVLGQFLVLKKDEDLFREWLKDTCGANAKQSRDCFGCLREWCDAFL
UniProt O60671: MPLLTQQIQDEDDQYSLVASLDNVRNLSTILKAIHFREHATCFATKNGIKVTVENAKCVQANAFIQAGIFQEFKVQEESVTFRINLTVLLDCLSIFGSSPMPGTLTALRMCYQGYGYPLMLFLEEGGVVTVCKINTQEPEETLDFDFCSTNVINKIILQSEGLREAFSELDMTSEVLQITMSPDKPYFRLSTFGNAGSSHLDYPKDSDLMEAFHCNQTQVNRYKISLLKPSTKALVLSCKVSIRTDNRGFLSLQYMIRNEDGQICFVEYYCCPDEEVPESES
UniProt O76054, whole entry: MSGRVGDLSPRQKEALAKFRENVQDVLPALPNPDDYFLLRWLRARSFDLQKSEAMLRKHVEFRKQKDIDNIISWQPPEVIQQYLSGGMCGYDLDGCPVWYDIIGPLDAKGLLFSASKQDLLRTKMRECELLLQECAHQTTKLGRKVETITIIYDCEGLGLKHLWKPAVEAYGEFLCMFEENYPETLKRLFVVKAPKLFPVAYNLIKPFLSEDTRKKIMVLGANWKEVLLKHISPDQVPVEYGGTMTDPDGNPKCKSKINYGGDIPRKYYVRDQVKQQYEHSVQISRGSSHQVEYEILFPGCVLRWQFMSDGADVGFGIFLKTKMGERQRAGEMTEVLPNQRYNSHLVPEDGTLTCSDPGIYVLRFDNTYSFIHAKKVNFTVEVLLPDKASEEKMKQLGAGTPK
UniProt O75940: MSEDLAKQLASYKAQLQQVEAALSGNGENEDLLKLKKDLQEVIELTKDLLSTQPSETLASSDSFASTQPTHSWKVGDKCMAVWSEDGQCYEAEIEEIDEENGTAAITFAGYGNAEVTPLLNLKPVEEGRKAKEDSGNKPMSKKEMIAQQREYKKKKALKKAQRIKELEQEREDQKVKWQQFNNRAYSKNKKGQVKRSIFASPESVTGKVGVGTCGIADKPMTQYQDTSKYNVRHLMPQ
UniProt O75380, whole entry: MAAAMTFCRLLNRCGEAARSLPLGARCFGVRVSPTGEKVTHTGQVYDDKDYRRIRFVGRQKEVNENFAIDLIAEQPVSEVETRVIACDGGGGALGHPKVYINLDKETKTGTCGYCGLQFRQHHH
UniProt O75896: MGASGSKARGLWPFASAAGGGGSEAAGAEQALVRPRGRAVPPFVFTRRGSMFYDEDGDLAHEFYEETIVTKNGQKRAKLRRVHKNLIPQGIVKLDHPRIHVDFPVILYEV
UniProt O95470: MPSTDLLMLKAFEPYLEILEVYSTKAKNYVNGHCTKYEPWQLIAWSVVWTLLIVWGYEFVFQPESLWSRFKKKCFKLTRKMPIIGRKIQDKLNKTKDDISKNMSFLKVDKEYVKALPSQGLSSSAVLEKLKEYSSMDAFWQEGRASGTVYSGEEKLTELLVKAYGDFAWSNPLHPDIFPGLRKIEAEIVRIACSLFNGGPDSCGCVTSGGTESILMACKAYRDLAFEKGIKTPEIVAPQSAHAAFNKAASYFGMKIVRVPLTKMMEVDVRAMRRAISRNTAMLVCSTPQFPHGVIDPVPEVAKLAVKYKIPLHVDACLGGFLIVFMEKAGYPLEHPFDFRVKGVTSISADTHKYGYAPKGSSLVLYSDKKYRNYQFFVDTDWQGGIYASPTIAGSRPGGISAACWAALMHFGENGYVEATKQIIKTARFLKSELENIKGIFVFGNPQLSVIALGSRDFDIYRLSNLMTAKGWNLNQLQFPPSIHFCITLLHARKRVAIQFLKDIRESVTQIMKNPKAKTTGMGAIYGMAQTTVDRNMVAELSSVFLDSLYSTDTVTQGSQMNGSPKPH
UniProt O75600: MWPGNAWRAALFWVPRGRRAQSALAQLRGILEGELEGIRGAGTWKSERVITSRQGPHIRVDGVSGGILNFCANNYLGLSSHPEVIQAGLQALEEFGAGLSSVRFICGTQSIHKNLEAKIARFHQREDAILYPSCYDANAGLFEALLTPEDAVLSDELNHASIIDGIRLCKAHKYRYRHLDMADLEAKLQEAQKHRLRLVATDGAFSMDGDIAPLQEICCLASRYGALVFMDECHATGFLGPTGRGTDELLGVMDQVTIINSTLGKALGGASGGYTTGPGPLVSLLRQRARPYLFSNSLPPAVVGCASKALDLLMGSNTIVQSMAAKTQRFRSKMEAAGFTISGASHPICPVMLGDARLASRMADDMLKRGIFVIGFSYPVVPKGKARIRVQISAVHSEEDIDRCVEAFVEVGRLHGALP
UniProt O75533, whole entry: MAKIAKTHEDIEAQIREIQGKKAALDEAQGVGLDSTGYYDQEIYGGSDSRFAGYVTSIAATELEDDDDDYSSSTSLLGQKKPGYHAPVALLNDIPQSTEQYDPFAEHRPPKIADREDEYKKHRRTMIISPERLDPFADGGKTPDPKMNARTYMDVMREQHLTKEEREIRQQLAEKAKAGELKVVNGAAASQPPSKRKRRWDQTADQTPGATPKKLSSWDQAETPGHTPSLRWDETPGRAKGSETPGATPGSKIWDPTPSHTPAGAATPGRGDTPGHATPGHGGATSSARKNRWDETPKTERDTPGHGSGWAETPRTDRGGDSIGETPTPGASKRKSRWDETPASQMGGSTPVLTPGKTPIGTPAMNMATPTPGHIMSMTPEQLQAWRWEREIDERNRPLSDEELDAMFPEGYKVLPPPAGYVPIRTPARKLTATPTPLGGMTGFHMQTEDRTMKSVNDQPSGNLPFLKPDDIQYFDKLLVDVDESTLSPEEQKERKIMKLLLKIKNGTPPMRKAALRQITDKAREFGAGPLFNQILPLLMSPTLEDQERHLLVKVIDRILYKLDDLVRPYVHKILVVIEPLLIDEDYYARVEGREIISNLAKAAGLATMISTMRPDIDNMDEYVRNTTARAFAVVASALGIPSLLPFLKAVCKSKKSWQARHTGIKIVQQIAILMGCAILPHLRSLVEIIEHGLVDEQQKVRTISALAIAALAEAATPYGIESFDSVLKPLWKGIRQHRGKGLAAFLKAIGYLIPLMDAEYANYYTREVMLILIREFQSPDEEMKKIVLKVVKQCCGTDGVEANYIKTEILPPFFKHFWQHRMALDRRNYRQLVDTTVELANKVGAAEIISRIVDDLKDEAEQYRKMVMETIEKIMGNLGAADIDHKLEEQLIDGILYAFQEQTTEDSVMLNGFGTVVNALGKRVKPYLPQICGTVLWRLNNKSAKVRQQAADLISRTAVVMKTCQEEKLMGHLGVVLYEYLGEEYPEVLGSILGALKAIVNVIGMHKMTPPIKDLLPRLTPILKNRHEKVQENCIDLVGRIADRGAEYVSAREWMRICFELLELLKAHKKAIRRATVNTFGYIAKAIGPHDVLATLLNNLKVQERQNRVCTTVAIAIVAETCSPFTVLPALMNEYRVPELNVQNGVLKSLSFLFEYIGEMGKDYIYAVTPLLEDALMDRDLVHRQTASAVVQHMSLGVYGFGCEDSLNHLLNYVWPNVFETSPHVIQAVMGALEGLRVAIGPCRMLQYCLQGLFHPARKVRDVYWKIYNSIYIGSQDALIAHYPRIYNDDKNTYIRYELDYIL
UniProt O75152: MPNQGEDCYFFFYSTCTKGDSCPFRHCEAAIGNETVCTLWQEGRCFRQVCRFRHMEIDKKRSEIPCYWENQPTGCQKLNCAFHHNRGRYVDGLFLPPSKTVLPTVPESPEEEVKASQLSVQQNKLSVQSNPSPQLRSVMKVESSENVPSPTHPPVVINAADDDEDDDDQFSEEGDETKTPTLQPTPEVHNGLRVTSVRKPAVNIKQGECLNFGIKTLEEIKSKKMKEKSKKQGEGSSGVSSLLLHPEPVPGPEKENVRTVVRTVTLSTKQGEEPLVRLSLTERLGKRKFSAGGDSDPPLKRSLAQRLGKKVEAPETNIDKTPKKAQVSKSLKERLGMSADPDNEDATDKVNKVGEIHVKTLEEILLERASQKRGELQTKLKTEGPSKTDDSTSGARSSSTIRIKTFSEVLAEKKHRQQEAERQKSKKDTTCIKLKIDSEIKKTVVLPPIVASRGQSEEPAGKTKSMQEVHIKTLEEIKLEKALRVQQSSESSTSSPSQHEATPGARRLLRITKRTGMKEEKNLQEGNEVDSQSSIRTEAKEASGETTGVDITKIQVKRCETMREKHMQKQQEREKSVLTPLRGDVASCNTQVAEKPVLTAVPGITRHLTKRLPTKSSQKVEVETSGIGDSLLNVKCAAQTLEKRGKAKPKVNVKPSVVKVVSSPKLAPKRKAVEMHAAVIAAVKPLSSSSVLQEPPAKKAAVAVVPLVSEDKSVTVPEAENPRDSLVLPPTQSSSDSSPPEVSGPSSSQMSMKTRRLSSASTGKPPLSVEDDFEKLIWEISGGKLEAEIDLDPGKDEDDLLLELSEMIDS
UniProt O75694: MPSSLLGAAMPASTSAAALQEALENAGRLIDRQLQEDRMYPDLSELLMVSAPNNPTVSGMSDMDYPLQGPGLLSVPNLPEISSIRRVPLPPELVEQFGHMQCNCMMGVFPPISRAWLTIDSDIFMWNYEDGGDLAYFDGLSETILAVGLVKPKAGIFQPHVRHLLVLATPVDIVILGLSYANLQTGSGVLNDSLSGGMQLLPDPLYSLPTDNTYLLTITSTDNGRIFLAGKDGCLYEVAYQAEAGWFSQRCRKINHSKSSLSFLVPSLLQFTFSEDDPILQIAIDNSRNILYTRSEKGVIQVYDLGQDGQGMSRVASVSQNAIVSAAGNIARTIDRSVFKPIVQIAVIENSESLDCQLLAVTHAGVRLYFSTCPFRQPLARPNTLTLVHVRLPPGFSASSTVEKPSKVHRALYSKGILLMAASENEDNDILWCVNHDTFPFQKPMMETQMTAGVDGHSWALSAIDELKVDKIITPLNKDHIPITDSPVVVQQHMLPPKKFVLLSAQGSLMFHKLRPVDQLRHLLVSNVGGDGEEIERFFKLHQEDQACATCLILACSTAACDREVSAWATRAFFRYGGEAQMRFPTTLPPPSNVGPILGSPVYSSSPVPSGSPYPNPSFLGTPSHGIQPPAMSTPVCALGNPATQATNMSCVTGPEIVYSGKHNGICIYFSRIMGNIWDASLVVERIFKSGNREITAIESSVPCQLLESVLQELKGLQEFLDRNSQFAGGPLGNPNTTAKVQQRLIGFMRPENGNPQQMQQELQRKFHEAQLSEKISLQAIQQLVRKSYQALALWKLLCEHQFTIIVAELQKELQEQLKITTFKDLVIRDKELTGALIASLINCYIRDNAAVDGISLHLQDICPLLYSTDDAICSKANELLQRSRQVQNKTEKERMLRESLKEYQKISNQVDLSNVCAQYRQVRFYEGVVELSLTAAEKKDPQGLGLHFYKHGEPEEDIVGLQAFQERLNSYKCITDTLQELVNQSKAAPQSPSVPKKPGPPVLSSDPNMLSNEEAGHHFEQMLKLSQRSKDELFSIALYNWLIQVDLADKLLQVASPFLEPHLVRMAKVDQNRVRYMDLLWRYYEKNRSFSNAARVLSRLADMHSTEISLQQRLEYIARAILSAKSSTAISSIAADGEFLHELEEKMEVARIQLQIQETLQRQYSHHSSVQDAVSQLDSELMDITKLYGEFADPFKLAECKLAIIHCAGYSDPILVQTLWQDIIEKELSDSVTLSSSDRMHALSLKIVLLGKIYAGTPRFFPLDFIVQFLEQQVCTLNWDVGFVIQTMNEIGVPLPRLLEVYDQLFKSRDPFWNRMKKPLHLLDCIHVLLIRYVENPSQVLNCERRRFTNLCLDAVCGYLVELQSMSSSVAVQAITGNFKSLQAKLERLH
UniProt O95251, whole entry: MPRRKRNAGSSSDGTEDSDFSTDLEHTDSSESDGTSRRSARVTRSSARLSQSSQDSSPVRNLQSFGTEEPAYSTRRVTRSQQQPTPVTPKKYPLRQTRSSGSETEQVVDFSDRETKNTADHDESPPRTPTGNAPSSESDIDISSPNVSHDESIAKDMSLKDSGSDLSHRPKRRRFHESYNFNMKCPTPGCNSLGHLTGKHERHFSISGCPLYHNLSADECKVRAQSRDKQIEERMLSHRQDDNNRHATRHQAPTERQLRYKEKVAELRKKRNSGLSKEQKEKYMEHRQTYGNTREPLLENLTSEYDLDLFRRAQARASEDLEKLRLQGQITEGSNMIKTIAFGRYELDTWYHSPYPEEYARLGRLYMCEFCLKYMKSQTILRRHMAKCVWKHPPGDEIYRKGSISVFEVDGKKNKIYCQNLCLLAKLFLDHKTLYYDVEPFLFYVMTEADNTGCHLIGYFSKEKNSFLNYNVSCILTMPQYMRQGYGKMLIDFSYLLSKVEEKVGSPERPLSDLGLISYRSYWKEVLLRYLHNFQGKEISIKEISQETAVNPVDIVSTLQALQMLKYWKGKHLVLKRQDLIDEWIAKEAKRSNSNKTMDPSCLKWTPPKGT
UniProt O60499: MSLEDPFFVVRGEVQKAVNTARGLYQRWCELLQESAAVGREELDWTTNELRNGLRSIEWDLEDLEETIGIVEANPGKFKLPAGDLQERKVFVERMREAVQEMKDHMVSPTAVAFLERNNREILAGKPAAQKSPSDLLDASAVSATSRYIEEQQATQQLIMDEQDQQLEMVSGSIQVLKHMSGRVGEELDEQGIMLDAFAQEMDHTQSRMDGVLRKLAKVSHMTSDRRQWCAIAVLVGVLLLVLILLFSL

Compound: Nc1ncnc2c1ncn2[C@@H]1O[C@H](COP(=O)(O)OP(=O)(O)NP(=O)(O)O)[C@@H](O)[C@H]1O [adenylyl imidodiphosphate]
Assay: NP40-soluble protein abundance relative to vehicle (solubility fold change) (ratio); higher = more soluble protein in presence of AMP-PNP
Summary of the method: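 Across three independent experiments, values are fold changes against the detergent-processed vehicle for each replicate, based on vsn-normalised intensities. The samples were Jurkat crude lysate treated with eight concentrations (0.1 to 10 mM) for 10 min at room temperature and then 3 min at 37 °C. Lysate was solubilised with 0.8% NP40 and benzonase, ultracentrifuged, and the supernatant analysed by TMT-labelled LC-MS/MS.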

Target	NP40-soluble protein abundance (concentration: 0.1mM)	NP40-soluble protein abundance (concentration: 0.5mM)
CPD (UniProt O75976)	0.955 ± 0.028	0.977 ± 0.019
RAD21 (UniProt O60216)	0.966 ± 0.032	0.9789 ± 0.0037
MCM3AP (UniProt O60318)	0.991 ± 0.018	1.01 ± 0.023
MOCS3 (UniProt O95396)	1.01 ± 0.034	1.02 ± 0.069
UniProt O60287 and related entries	1.01 ± 0.031	1 ± 0.024
SLU7 (UniProt O95391)	1.011 ± 0.0054	0.989 ± 0.026
UniProt O95453 and related entries	1 ± 0.016	0.998 ± 0.023
UniProt O60784 and related entries	0.994 ± 0.017	0.974 ± 0.03
UniProt O95197 and related entries	0.959 ± 0.061	1.02 ± 0.059
UniProt O75947	0.971 ± 0.021	1 ± 0.032
PCF11 (UniProt O94913)	0.997 ± 0.016	1 ± 0.031
BANF1 (UniProt O75531)	2.96 ± 0.91	2.68 ± 0.81
SMARCA5 (UniProt O60264)	1.03 ± 0.025	1.04 ± 0.043
UniProt O94887 and related entries	0.985 ± 0.028	0.971 ± 0.018
UniProt O75398-5|O75398 and related entries	1.02 ± 0.0092	1.02 ± 0.018
UniProt O60830 and related entries	1 ± 0.04	1.02 ± 0.051
UniProt O60671 and related entries	1.01 ± 0.059	0.995 ± 0.057
UniProt O75494 and related entries	1.03 ± 0.021	1.02 ± 0.038
UniProt O60504-2|O60504	1 ± 0.016	1.016 ± 0.0084
UniProt O75935 and related entries	1.06 ± 0.14	0.997 ± 0.11
UniProt O75379 and related entries	0.989 ± 0.048	1.01 ± 0.022
UniProt O95297 and related entries	0.917 ± 0.039	0.978 ± 0.026
RBBP9 (UniProt O75884)	1.02 ± 0.023	0.985 ± 0.042
UniProt O76054 and related entries	0.98 ± 0.031	1.01 ± 0.068

Target	NP40-soluble protein abundance (concentration: 0.1mM)	NP40-soluble protein abundance (concentration: 0.5mM)
UniProt O60293 and related entries	1.02 ± 0.058	1.02 ± 0.027
UniProt O95644 and related entries	1.01 ± 0.015	0.983 ± 0.016
ZBTB11 (UniProt O95625)	1.01 ± 0.022	0.986 ± 0.027
UniProt O60271 and related entries	1 ± 0.021	1.02 ± 0.054
UniProt O60869 and related entries	0.978 ± 0.038	1 ± 0.028
SNX3 (UniProt O60493)	0.997 ± 0.046	1.05 ± 0.13
UniProt O75419 and related entries	1.02 ± 0.023	0.979 ± 0.07
KIN (UniProt O60870)	0.973 ± 0.017	1.004 ± 0.0095
UniProt O95235 and related entries	1.04 ± 0.038	1.01 ± 0.042
UniProt O60502	0.975 ± 0.016	0.974 ± 0.046
GLRX3 (UniProt O76003)	1.02 ± 0.024	1.03 ± 0.018
UniProt O94927	0.9995 ± 0.0035	1 ± 0.036
SLC25A12 (UniProt O75746)	1.01 ± 0.025	1.01 ± 0.019
UniProt O95696 and related entries	1.02 ± 0.014	1.014 ± 0.0096
PHF2 (UniProt O75151)	0.978 ± 0.015	0.992 ± 0.031
UniProt O94903	0.984 ± 0.017	1.01 ± 0.057
HERC2 (UniProt O95714)	0.987 ± 0.066	1.01 ± 0.025
SPAG7 (UniProt O75391)	0.938 ± 0.033	0.966 ± 0.021
UniProt O60645 and related entries	1.01 ± 0.038	0.985 ± 0.021
UniProt O94763	1 ± 0.044	1.05 ± 0.068
UniProt O75928 and related entries	0.975 ± 0.022	1 ± 0.022
UniProt O60763 and related entries	0.993 ± 0.019	1.02 ± 0.035
SASH3 (UniProt O75995)	0.986 ± 0.017	0.994 ± 0.028
UniProt O75330 and related entries	0.979 ± 0.019	0.983 ± 0.055

Target	NP40-soluble protein abundance (concentration: 0.1mM)	NP40-soluble protein abundance (concentration: 0.5mM)
UniProt O75787 and related entries	0.983 ± 0.058	1.03 ± 0.064
UniProt O75381 and related entries	0.996 ± 0.036	1.04 ± 0.064
TAF5L (UniProt O75529)	1.01 ± 0.034	1.002 ± 0.01
HIP1R (UniProt O75146)	1 ± 0.028	1.01 ± 0.027
UniProt O75400 and related entries	1.01 ± 0.028	1.04 ± 0.028
SMNDC1 (UniProt O75940)	1.02 ± 0.032	1.04 ± 0.054
CDC123 (UniProt O75794)	1.06 ± 0.05	1.03 ± 0.061
NADK (UniProt O95544)	1.01 ± 0.03	1.02 ± 0.023
FAM20B (UniProt O75063)	1 ± 0.034	0.999 ± 0.026
NDUFS6 (UniProt O75380)	0.962 ± 0.042	1.02 ± 0.076
AQR (UniProt O60306)	1.08 ± 0.022	0.97 ± 0.13
GRAP2 (UniProt O75791)	1.057 ± 0.0065	0.988 ± 0.063
UniProt O75925 and related entries	1.06 ± 0.075	1.02 ± 0.014
AHSA1 (UniProt O95433)	1 ± 0.049	0.978 ± 0.036
UniProt O60825 and related entries	1.04 ± 0.04	1.02 ± 0.023
UniProt O75822 and related entries	0.892 ± 0.04	0.896 ± 0.04
PPP1R11 (UniProt O60927)	1 ± 0.025	1.02 ± 0.019
CDS2 (UniProt O95674)	0.968 ± 0.02	1.01 ± 0.039
UniProt O95571 and related entries	1.01 ± 0.025	0.968 ± 0.014
LETM1 (UniProt O95202)	0.972 ± 0.017	0.991 ± 0.043
UniProt O94822 and related entries	1.01 ± 0.021	0.992 ± 0.04
MTRF1 (UniProt O75570)	1.02 ± 0.017	0.983 ± 0.037
KATNA1 (UniProt O75449)	1 ± 0.041	0.974 ± 0.03
MAFK (UniProt O60675)	0.987 ± 0.015	1 ± 0.012

Target	NP40-soluble protein abundance (concentration: 0.1mM)	NP40-soluble protein abundance (concentration: 0.5mM)
UniProt O94906 and related entries	1.06 ± 0.038	1.01 ± 0.061
VPS26A (UniProt O75436)	1.04 ± 0.087	0.975 ± 0.18
WDHD1 (UniProt O75717)	0.986 ± 0.02	0.982 ± 0.02
TUSC2 (UniProt O75896)	1.01 ± 0.032	1 ± 0.022
SEC24A (UniProt O95486)	1 ± 0.034	0.992 ± 0.044
WBP4 (UniProt O75554)	0.9415 ± 0.0075	0.986 ± 0.04
UniProt O60762 and related entries	1.07 ± 0.03	0.978 ± 0.053
UniProt O75525 and related entries	1.02 ± 0.02	1.02 ± 0.022
UniProt O95298 and related entries	1.04 ± 0.11	1.01 ± 0.072
RNASEH2A (UniProt O75792)	0.991 ± 0.018	1 ± 0.043
UniProt O76095 and related entries	0.984 ± 0.049	0.99 ± 0.023
PRMT3 (UniProt O60678)	1.02 ± 0.024	0.951 ± 0.049
NDUFA7 (UniProt O95182)	0.988 ± 0.012	1.01 ± 0.036
UniProt O60879-2|C9J6U3	0.988 ± 0.016	0.972 ± 0.018
RNASEH1 (UniProt O60930)	1.04 ± 0.05	1.03 ± 0.026
SGPL1 (UniProt O95470)	1.02 ± 0.046	1.02 ± 0.081
SAP30 (UniProt O75446)	1.01 ± 0.019	1.03 ± 0.056
CCNT1 (UniProt O60563)	1.01 ± 0.043	1.08 ± 0.052
PRPSAP2 (UniProt O60256)	1.03 ± 0.052	0.922 ± 0.057
UniProt O75081 and related entries	1 ± 0.013	1.01 ± 0.038
GGCT (UniProt O75223)	0.983 ± 0.021	1.04 ± 0.066
UniProt O75600 and related entries	0.989 ± 0.043	0.968 ± 0.033
UniProt O94762 and related entries	0.996 ± 0.048	0.968 ± 0.028
KPNA6 (UniProt O60684)	1.005 ± 0.0051	0.994 ± 0.014

No new results follow: entries from further up.
Target	NP40-soluble protein abundance (concentration: 0.1mM)	NP40-soluble protein abundance (concentration: 0.5mM)
SASH3 (UniProt O75995)	0.986 ± 0.017	0.994 ± 0.028
UniProt O75330 and related entries	0.979 ± 0.019	0.983 ± 0.055
UniProt O75787 and related entries	0.983 ± 0.058	1.03 ± 0.064
UniProt O75381 and related entries	0.996 ± 0.036	1.04 ± 0.064
TAF5L (UniProt O75529)	1.01 ± 0.034	1.002 ± 0.01
HIP1R (UniProt O75146)	1 ± 0.028	1.01 ± 0.027

Next part.

Target	NP40-soluble protein abundance (concentration: 0.1mM)	NP40-soluble protein abundance (concentration: 0.5mM)
UniProt O94804	0.968 ± 0.037	0.98 ± 0.033
SURF6 (UniProt O75683)	1.01 ± 0.036	1.04 ± 0.083
SF3B1 (UniProt O75533)	1.01 ± 0.012	1.01 ± 0.016
UniProt O75530	1.02 ± 0.025	1.02 ± 0.045
ZC3H11A (UniProt O75152)	0.895 ± 0.046	0.874 ± 0.14
NUP155 (UniProt O75694)	1.03 ± 0.041	0.987 ± 0.096
UniProt O60524 and related entries	1 ± 0.017	1.03 ± 0.023
UniProt O95251 and related entries	1.04 ± 0.022	1.08 ± 0.011
UniProt O95248-4|G5E933 and related entries	1.019 ± 0.0067	0.991 ± 0.023
O60344 and related entries (UniProt P0DPD6)	0.999 ± 0.019	1.02 ± 0.02
ATG12 (UniProt O94817)	0.977 ± 0.028	1.01 ± 0.022
IPO7 (UniProt O95373)	1.02 ± 0.04	1.015 ± 0.0091
UniProt O60499 and related entries	1.04 ± 0.037	1.032 ± 0.0074
DGAT1 (UniProt O75907)	1.01 ± 0.083	0.952 ± 0.086
SLC16A7 (UniProt O60669)	0.971 ± 0.028	0.981 ± 0.022
UniProt O60664 and related entries	0.937 ± 0.033	1.03 ± 0.072
HEXIM1 (UniProt O94992)	1.013 ± 0.0096	0.993 ± 0.022
UniProt O95551	0.978 ± 0.014	1.01 ± 0.025
SNX2 (UniProt O60749)	0.973 ± 0.022	0.9865 ± 0.0061
UniProt O94855 and related entries	1.01 ± 0.05	1 ± 0.025
GMDS (UniProt O60547)	1.04 ± 0.027	1 ± 0.036
LCMT2 (UniProt O60294)	0.957 ± 0.015	0.988 ± 0.052
VAMP5 (UniProt O95183)	1.02 ± 0.033	1 ± 0.025
ZNF217 (UniProt O75362)	0.981 ± 0.039	1 ± 0.032
